The numbers were not newly measured in patent US20060083786A1, “Taste masking pharmaceutical composition containing levocetirizine” (Glenmark Pharmaceuticals Limited, priority 2004, published 2006), which cites them from elsewhere.

Chains of the proteins cited; added tags and fusions are not shown.
UniProt P35367, whole entry: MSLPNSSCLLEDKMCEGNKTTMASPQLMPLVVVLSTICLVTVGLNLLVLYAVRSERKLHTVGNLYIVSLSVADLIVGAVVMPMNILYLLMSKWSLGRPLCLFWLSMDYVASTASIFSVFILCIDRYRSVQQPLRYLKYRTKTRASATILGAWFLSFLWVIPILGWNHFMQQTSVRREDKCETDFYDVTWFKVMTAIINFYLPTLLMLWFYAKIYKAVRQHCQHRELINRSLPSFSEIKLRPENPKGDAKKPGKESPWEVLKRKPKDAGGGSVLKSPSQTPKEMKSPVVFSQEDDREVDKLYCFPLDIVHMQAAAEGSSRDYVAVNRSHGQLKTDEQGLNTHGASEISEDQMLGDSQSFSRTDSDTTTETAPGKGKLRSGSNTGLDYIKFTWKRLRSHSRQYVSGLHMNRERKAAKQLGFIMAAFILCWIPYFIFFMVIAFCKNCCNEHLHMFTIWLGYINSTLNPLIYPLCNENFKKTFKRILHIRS

The target of one data set is human H1 receptors (Homo sapiens, UniProt P35367). The settings on record: compared with cetirizine; 'is believed'.
The conditions of data set [1]: 'is believed'.

`O=C(O)COCCN1CCN([C@H](c2ccccc2)c2ccc(Cl)cc2)CC1` [Levocetirizine]: the “affinity for human H1 receptors relative to cetirizine” value at human H1 receptors was “two fold higher”. Moreover, the absorption result in data set [1] was “rapidly and extensively absorbed”.
